Measured values as given in publication PMC11148080, “Ru(II)-based complexes containing 2-thiouracil derivatives suppress liver cancer stem cells by targeting NF-κB and Akt/mTOR signaling” (Cell Death Discovery, 2024).

Experiments:
Assay in all cases: Alamar Blue cytotoxicity
NB4 = assay type: cell-based, human
Procedure: (§1) The Alamar Blue assay was used to measure cell viability, as previously described. Adherent cells were seeded in 96-well plates at a density of 7 × 10^3 cells per well, and suspended cells were seeded at 3 × 10^4 cells per well. Drugs were added to each well after overnight incubation for adherent cells or immediately after seeding for suspension cells, and incubation continued for an additional 72 h. The positive control included doxorubicin (Laboratorio IMA S.A.I.C., Buenos Aires, Argentina). Four hours (for cell lines) or 24 h (for primary cultures) before the end of incubation, 20 μL of resazurin (30 μM) (Sigma‒Aldrich Co. St. Louis, MO, USA) was added to each well. The absorbance at 570 and 600 nm was measured using a SpectraMax 190 microplate reader (Molecular Devices, Sunnyvale, CA, USA).

MDA-MB-231 = assay type: cell-based, human
Procedure: as §1

MCF-7 = assay type: cell-based, human
Procedure: as §1

HCT116 = assay type: cell-based, human
Procedure: as §1

U-87 MG = assay type: cell-based, human
Procedure: as §1

HSC-3 = assay type: cell-based, human
Procedure: as §1

HepG2 = assay type: cell-based, human
Procedure: as §1

CAL 27 = assay type: cell-based, human
Procedure: as §1

PANC-1 = assay type: cell-based, human
Procedure: as §1

K-562 = assay type: cell-based, human
Procedure: as §1

OVCAR-3 = assay type: cell-based, human
Procedure: as §1

KG-1a = assay type: cell-based, human
Procedure: as §1

SCC-9 = assay type: cell-based, human
Procedure: as §1

THP-1 = assay type: cell-based, human
Procedure: as §1

SCC-25 = assay type: cell-based, human
Procedure: as §1

SCC4 = assay type: cell-based, human
Procedure: as §1

A-375 = assay type: cell-based, human
Procedure: as §1

Jurkat = assay type: cell-based, human
Procedure: as §1

A549 = assay type: cell-based, human
Procedure: as §1

DU 145 = assay type: cell-based, human
Procedure: as §1

4T1 = assay type: cell-based, mouse
Procedure: as §1

B16-F10 = assay type: cell-based, mouse
Procedure: as §1

HL-60 = assay type: cell-based, human
Procedure: as §1, with “The positive control included doxorubicin (Laboratorio IMA S.A.I.C., Buenos Aires, Argentina).” left out

F[P-](F)(F)(F)(F)F.O=c1cc[nH]c([S][Ru+])n1.c1ccc(-c2ccccn2)nc1.c1ccc(P(c2ccccc2)c2ccccc2)cc1.c1ccc(P(c2ccccc2)c2ccccc2)cc1 [Complex 1, trans-[Ru(2TU)(PPh3)2(bipy)]PF6]
Selectivity index (NB4; IC50 BJ/IC50 NB4): 2.36 | Selectivity index (NB4; IC50 MRC-5/IC50 NB4): 3.70 | Selectivity index (NB4; IC50 PBMC/IC50 NB4): 2.97 | Selectivity index (MDA-MB-231; IC50 BJ/IC50 MDA-MB-231): 1.29 | Selectivity index (MDA-MB-231; IC50 MRC-5/IC50 MDA-MB-231): 6.76 | Selectivity index (MDA-MB-231; IC50 PBMC/IC50 MDA-MB-231): 5.43 | Selectivity index (MCF-7; IC50 BJ/IC50 MCF-7): 4.53 | Selectivity index (MCF-7; IC50 MRC-5/IC50 MCF-7): 1.92 | Selectivity index (MCF-7; IC50 PBMC/IC50 MCF-7): 1.55 | Selectivity index (HCT116; IC50 BJ/IC50 HCT116): 2.33 | Selectivity index (HCT116; IC50 MRC-5/IC50 HCT116): 3.73 | Selectivity index (HCT116; IC50 PBMC/IC50 HCT116): 3.00 | Selectivity index (U-87 MG; IC50 BJ/IC50 U-87 MG): 1.74 | Selectivity index (U-87 MG; IC50 MRC-5/IC50 U-87 MG): 5.01 | Selectivity index (U-87 MG; IC50 PBMC/IC50 U-87 MG): 4.03 | Selectivity index (HSC-3; IC50 BJ/IC50 HSC-3): 4.11 | Selectivity index (HSC-3; IC50 MRC-5/IC50 HSC-3): 2.12 | Selectivity index (HSC-3; IC50 PBMC/IC50 HSC-3): 1.70 | Selectivity index (HepG2; IC50 MRC-5/IC50 HepG2): 5.07 | Selectivity index (HepG2; IC50 PBMC/IC50 HepG2): 4.08 | Selectivity index (CAL 27; IC50 BJ/IC50 CAL 27): 1.31 | Selectivity index (CAL 27; IC50 MRC-5/IC50 CAL 27): 6.65 | Selectivity index (CAL 27; IC50 PBMC/IC50 CAL 27): 5.35 | Selectivity index (PANC-1; IC50 BJ/IC50 PANC-1): 4.65 | Selectivity index (PANC-1; IC50 MRC-5/IC50 PANC-1): 1.87 | Selectivity index (PANC-1; IC50 PBMC/IC50 PANC-1): 1.51 | Selectivity index (K-562; IC50 BJ/IC50 K-562): 3.33 | Selectivity index (K-562; IC50 MRC-5/IC50 K-562): 2.61 | Selectivity index (K-562; IC50 PBMC/IC50 K-562): 2.10 | Selectivity index (OVCAR-3; IC50 BJ/IC50 OVCAR-3): 1.20 | Selectivity index (OVCAR-3; IC50 MRC-5/IC50 OVCAR-3): 7.28 | Selectivity index (OVCAR-3; IC50 PBMC/IC50 OVCAR-3): 5.86 | Selectivity index (KG-1a; IC50 BJ/IC50 KG-1a): 2.35 | Selectivity index (KG-1a; IC50 MRC-5/IC50 KG-1a): 3.71 | Selectivity index (KG-1a; IC50 PBMC/IC50 KG-1a): 2.98 | Selectivity index (SCC-9; IC50 BJ/IC50 SCC-9): 2.16 | Selectivity index (SCC-9; IC50 MRC-5/IC50 SCC-9): 4.02 | Selectivity index (SCC-9; IC50 PBMC/IC50 SCC-9): 3.23 | Selectivity index (THP-1; IC50 BJ/IC50 THP-1): 2.34 | Selectivity index (THP-1; IC50 MRC-5/IC50 THP-1): 3.73 | Selectivity index (THP-1; IC50 PBMC/IC50 THP-1): 3.00 | Selectivity index (SCC-25; IC50 BJ/IC50 SCC-25): 3.74 | Selectivity index (SCC-25; IC50 MRC-5/IC50 SCC-25): 2.33 | Selectivity index (SCC-25; IC50 PBMC/IC50 SCC-25): 1.87 | Selectivity index (SCC4; IC50 BJ/IC50 SCC4): 2.35 | Selectivity index (SCC4; IC50 MRC-5/IC50 SCC4): 3.71 | Selectivity index (SCC4; IC50 PBMC/IC50 SCC4): 2.98 | Selectivity index (A-375; IC50 BJ/IC50 A-375): 1.48 | Selectivity index (A-375; IC50 MRC-5/IC50 A-375): 5.88 | Selectivity index (A-375; IC50 PBMC/IC50 A-375): 4.73 | Selectivity index (Jurkat; IC50 BJ/IC50 Jurkat): 2.49 | Selectivity index (Jurkat; IC50 MRC-5/IC50 Jurkat): 3.49 | Selectivity index (Jurkat; IC50 PBMC/IC50 Jurkat): 2.81 | Selectivity index (A549; IC50 MRC-5/IC50 A549): 1.01 | Selectivity index (A549; IC50 PBMC/IC50 A549): 0.81 | Selectivity index (DU 145; IC50 BJ/IC50 DU 145): 3.74 | Selectivity index (DU 145; IC50 MRC-5/IC50 DU 145): 2.33 | Selectivity index (DU 145; IC50 PBMC/IC50 DU 145): 1.87 | Selectivity index (4T1; IC50 BJ/IC50 4T1): 5.77 | Selectivity index (4T1; IC50 MRC-5/IC50 4T1): 1.51 | Selectivity index (4T1; IC50 PBMC/IC50 4T1): 1.21 | Selectivity index (B16-F10; IC50 BJ/IC50 B16-F10): 1.50 | Selectivity index (B16-F10; IC50 MRC-5/IC50 B16-F10): 5.82 | Selectivity index (B16-F10; IC50 PBMC/IC50 B16-F10): 4.68 | Selectivity index (HL-60; IC50 BJ/IC50 HL-60): 2.81 | Selectivity index (HL-60; IC50 MRC-5/IC50 HL-60): 3.10 | Selectivity index (HL-60; IC50 PBMC/IC50 HL-60): 2.49

Cc1cc(=O)nc([S][Ru+])[nH]1.F[P-](F)(F)(F)(F)F.c1ccc(-c2ccccn2)nc1.c1ccc(P(c2ccccc2)c2ccccc2)cc1.c1ccc(P(c2ccccc2)c2ccccc2)cc1 [Complex 2, trans-[Ru(6m2TU)(PPh3)2(bipy)]PF6]
Selectivity index (NB4; IC50 BJ/IC50 NB4): 1.48 | Selectivity index (NB4; IC50 MRC-5/IC50 NB4): 2.90 | Selectivity index (NB4; IC50 PBMC/IC50 NB4): 2.22 | Selectivity index (MDA-MB-231; IC50 BJ/IC50 MDA-MB-231): 2.64 | Selectivity index (MDA-MB-231; IC50 MRC-5/IC50 MDA-MB-231): 5.16 | Selectivity index (MDA-MB-231; IC50 PBMC/IC50 MDA-MB-231): 3.95 | Selectivity index (MCF-7; IC50 BJ/IC50 MCF-7): 1.07 | Selectivity index (MCF-7; IC50 MRC-5/IC50 MCF-7): 2.09 | Selectivity index (MCF-7; IC50 PBMC/IC50 MCF-7): 1.60 | Selectivity index (HCT116; IC50 MRC-5/IC50 HCT116): 3.37 | Selectivity index (HCT116; IC50 PBMC/IC50 HCT116): 2.58 | Selectivity index (U-87 MG; IC50 BJ/IC50 U-87 MG): 2.11 | Selectivity index (U-87 MG; IC50 MRC-5/IC50 U-87 MG): 4.12 | Selectivity index (U-87 MG; IC50 PBMC/IC50 U-87 MG): 3.16 | Selectivity index (HSC-3; IC50 BJ/IC50 HSC-3): 1.40 | Selectivity index (HSC-3; IC50 MRC-5/IC50 HSC-3): 2.74 | Selectivity index (HSC-3; IC50 PBMC/IC50 HSC-3): 2.10 | Selectivity index (HepG2; IC50 BJ/IC50 HepG2): 2.46 | Selectivity index (HepG2; IC50 MRC-5/IC50 HepG2): 4.80 | Selectivity index (HepG2; IC50 PBMC/IC50 HepG2): 3.68 | Selectivity index (CAL 27; IC50 BJ/IC50 CAL 27): 1.81 | Selectivity index (CAL 27; IC50 MRC-5/IC50 CAL 27): 3.53 | Selectivity index (CAL 27; IC50 PBMC/IC50 CAL 27): 2.71 | Selectivity index (PANC-1; IC50 BJ/IC50 PANC-1): 1.90 | Selectivity index (PANC-1; IC50 MRC-5/IC50 PANC-1): 3.72 | Selectivity index (PANC-1; IC50 PBMC/IC50 PANC-1): 2.85 | Selectivity index (K-562; IC50 BJ/IC50 K-562): 1.01 | Selectivity index (K-562; IC50 MRC-5/IC50 K-562): 1.98 | Selectivity index (K-562; IC50 PBMC/IC50 K-562): 1.52 | Selectivity index (OVCAR-3; IC50 BJ/IC50 OVCAR-3): 4.81 | Selectivity index (OVCAR-3; IC50 MRC-5/IC50 OVCAR-3): 9.40 | Selectivity index (OVCAR-3; IC50 PBMC/IC50 OVCAR-3): 7.20 | Selectivity index (KG-1a; IC50 BJ/IC50 KG-1a): 2.07 | Selectivity index (KG-1a; IC50 MRC-5/IC50 KG-1a): 4.04 | Selectivity index (KG-1a; IC50 PBMC/IC50 KG-1a): 3.09 | Selectivity index (SCC-9; IC50 BJ/IC50 SCC-9): 3.07 | Selectivity index (SCC-9; IC50 MRC-5/IC50 SCC-9): 5.99 | Selectivity index (SCC-9; IC50 PBMC/IC50 SCC-9): 4.59 | Selectivity index (THP-1; IC50 BJ/IC50 THP-1): 1.20 | Selectivity index (THP-1; IC50 MRC-5/IC50 THP-1): 2.35 | Selectivity index (THP-1; IC50 PBMC/IC50 THP-1): 1.80 | Selectivity index (SCC-25; IC50 BJ/IC50 SCC-25): 2.15 | Selectivity index (SCC-25; IC50 MRC-5/IC50 SCC-25): 4.19 | Selectivity index (SCC-25; IC50 PBMC/IC50 SCC-25): 3.21 | Selectivity index (SCC4; IC50 BJ/IC50 SCC4): 2.24 | Selectivity index (SCC4; IC50 MRC-5/IC50 SCC4): 4.37 | Selectivity index (SCC4; IC50 PBMC/IC50 SCC4): 3.35 | Selectivity index (A-375; IC50 BJ/IC50 A-375): 3.90 | Selectivity index (A-375; IC50 MRC-5/IC50 A-375): 7.61 | Selectivity index (A-375; IC50 PBMC/IC50 A-375): 5.83 | Selectivity index (Jurkat; IC50 BJ/IC50 Jurkat): 1.58 | Selectivity index (Jurkat; IC50 MRC-5/IC50 Jurkat): 3.08 | Selectivity index (Jurkat; IC50 PBMC/IC50 Jurkat): 2.36 | Selectivity index (A549; IC50 BJ/IC50 A549): 0.74 | Selectivity index (A549; IC50 MRC-5/IC50 A549): 1.46 | Selectivity index (A549; IC50 PBMC/IC50 A549): 1.11 | Selectivity index (DU 145; IC50 BJ/IC50 DU 145): 2.08 | Selectivity index (DU 145; IC50 MRC-5/IC50 DU 145): 4.07 | Selectivity index (DU 145; IC50 PBMC/IC50 DU 145): 3.12 | Selectivity index (4T1; IC50 MRC-5/IC50 4T1): 3.37 | Selectivity index (4T1; IC50 PBMC/IC50 4T1): 2.58 | Selectivity index (B16-F10; IC50 BJ/IC50 B16-F10): 2.83 | Selectivity index (B16-F10; IC50 MRC-5/IC50 B16-F10): 5.53 | Selectivity index (B16-F10; IC50 PBMC/IC50 B16-F10): 4.24 | Selectivity index (HL-60; IC50 BJ/IC50 HL-60): 1.90 | Selectivity index (HL-60; IC50 MRC-5/IC50 HL-60): 3.70 | Selectivity index (HL-60; IC50 PBMC/IC50 HL-60): 2.84
